# “And” between values parts separate entries of the source, which are not always exact repeats. Equal values may be shown once. The name of at least one read-out is uncertain.
# Assays:
# Test in all cases: Greenhouse test, pre-emergence treatment
# [1] = test system: LOLMU; format: in vivo, Lolium multiflorum
# Description: (§1) The culture containers used were plastic flowerpots containing loamy sand with approximately 3.0% of humus as the substrate. The seeds of the test plants were sown separately for each species.
# (§2) For the pre-emergence treatment, the active ingredients, which had been suspended or emulsified in water, were applied directly after sowing by means of finely distributing nozzles. The containers were irrigated gently to promote germination and growth and subsequently covered with transparent plastic hoods until the plants had rooted. This cover caused uniform germination of the test plants, unless this had been impaired by the active ingredients.
# (§3) Depending on the species, the plants were kept at 10-25° C. or 20-35° C., respectively.
# (§4) The test period extended over 2 to 4 weeks. During this time, the plants were tended, and their response to the individual treatments was evaluated.
# (§5) Evaluation was carried out using a scale from 0 to 100. 100 means no emergence of the plants, or complete destruction of at least the aerial moieties, and 0 means no damage, or normal course of growth. A moderate herbicidal activity is given at values of at least 60, a good herbicidal activity is given at values of at least 70, and a very good herbicidal activity is given at values of at least 85.
# (§6) The respective stated components a and b, and if appropriate, c were formulated as a 10% by weight strength emulsion concentrate and, with addition of the amount of solvent system, introduced into the spray liquor used for applying the active compound.
# (§7) In the examples, the solvent used was water.
# In the examples below, using the method of S. R. Colby (1967) “Calculating synergistic and antagonistic responses of herbicide combinations”, Weeds 15, p. 22ff., the value E, which is expected if the activity of the individual active compounds is only additive, was calculated. E=X+Y−(X·Y/100) where • X=percent activity using active compound a at an application rate A; • Y=percent activity using active compound b at an application rate B; • E=expected activity (in %) by a+b at application rates A+B.
# (§8) If the value found experimentally is higher than the value E calculated according to Colby, a synergistic effect is present.
# [2] = test system: PHACA; format: in vivo, Phalaris canariensis
# Description: as §1, §2, §3, §4, §5, §6, §7
# (§9) In the examples below, using the method of S. R. Colby (1967) “Calculating synergistic and antagonistic responses of herbicide combinations”, Weeds 15, p. 22ff., the value E, which is expected if the activity of the individual active compounds is only additive, was calculated. […]
# as §8
# [3] = test system: BRADC; format: in vivo, Brachiaria decumbens
# Description: as §1, §2, §3, §4
# (§10) Evaluation was carried out using a scale from 0 to 100. […]
# as §9, §8
# [4] = test system: ECHCG; format: in vivo, Echinocloa crus-galli; settings: use rate 2 g ai/ha
# Description: as §1, §2, §3, §4, §10, §9, §8
# [5] = test system: ALOMY; format: in vivo, Alopecurus myosuroides; settings: 8 g ai/ha
# Description: as §1, §2, §3, §4, §10, §9, §8
# [6] = test system: EPHHL; format: in vivo, Euphorbia heterophylla; settings: 8 g ai/ha
# Description: as §1, §2, §3, §4, §10, §9, §8
# [7] = test system: GERPU; format: in vivo, Geranium pusillum; settings: 4 g ai/ha
# Description: as §1, §2, §3, §4, §10, §9, §8
# [8] = test system: IPOHE; format: in vivo, Ipomoea hederacea; settings: 8 g ai/ha
# Description: as §1, §2, §3, §4, §10, §9, §8
smiles,measurement,setting,value
"COCC(C)N(C(=O)CCl)c1c(C)csc1C (stereo not drawn) [Dimethenamid, dimethenamid]",observed % activity 20 DAT,[1]; 125 g ai/ha,98%
same,observed % activity 20 DAT,"[2]; use rate 62.5 g ai/ha, 20 DAT, listed as DMTA",70%
"Cn1nc(C(F)(F)F)c(CS(=O)(=O)C2=NOC(C)(C)C2)c1OC(F)F [Pyroxasulfone, pyroxasulfone]",observed % activity 20 DAT,[1]; 8 g ai/ha,30%
same,observed % activity 20 DAT,[3]; 8 g ai/ha,45% and 75%
"CC(C)(F)c1nc(N)nc(Nc2c(F)c(F)cc(F)c2F)n1 [compound 2, 6-(1-Fluoro-1-methyl-ethyl)-N4-(2,3,5,6-tetrafluorophenyl)-1,3,5-triazine-2,4-diamine]",observed % activity 20 DAT,"[1]; use rate 1 g ai/ha, 20 DAT",30%
same,observed % activity 20 DAT,"[1]; use rate 2 g ai/ha, 20 DAT",70%
same,observed % activity 20 DAT,"[2]; use rate 2 g ai/ha, 20 DAT",50% and 85%
same,observed % activity 20 DAT,[4],95% and 70%
"Nc1nc(Nc2c(F)c(F)cc(F)c2F)nc(C2(F)CCCC2)n1 [compound 9, 6-(1-fluorocyclopentyl)-N4-(2,3,5,6-tetrafluorophenyl)-1,3,5-triazine-2,4-diamine]",observed % activity 20 DAT,[5],95%
same,observed % activity 20 DAT,[6],20%
same,observed % activity 20 DAT,[7],25%
same,observed % activity 20 DAT,[8],0% and 10%
same,observed % activity 20 DAT,[1]; 8 g ai/ha,95%
same,observed % activity 20 DAT,[2]; 8 g ai/ha,60%
same,observed % activity 20 DAT,[3]; 4 g ai/ha,50% and 80%
